Data from patent publication US20100269180A1.
Results are given in words; binding and its absence hold for the method and conditions named. Some entries that bind do so weakly or less than the wild type.

Legend:
[1] = target: T1, T-cadherin (endogenous, mouse, on cardiomyocyte surfaces) (mouse) (UniProt Q9WTR5); assay: immunostaining of wild type, T-cadherin null and adiponectin null hearts (FIG. 2A legend)
T1 sequence (GPI anchor, looked up): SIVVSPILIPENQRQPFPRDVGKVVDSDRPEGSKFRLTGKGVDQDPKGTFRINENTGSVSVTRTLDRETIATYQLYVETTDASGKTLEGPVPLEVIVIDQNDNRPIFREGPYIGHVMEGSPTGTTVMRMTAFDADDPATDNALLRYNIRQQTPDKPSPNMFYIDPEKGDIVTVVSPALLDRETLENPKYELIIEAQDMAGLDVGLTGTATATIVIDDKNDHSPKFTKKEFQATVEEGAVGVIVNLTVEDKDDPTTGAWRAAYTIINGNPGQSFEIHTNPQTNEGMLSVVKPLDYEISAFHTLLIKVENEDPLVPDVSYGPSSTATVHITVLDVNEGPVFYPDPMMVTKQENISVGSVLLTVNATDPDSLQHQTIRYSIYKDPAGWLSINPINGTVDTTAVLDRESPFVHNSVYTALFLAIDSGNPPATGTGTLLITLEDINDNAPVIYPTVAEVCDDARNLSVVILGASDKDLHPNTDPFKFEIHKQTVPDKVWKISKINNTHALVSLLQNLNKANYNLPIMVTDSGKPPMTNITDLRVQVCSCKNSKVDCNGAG

[2] = target: T1, T-cadherin (endogenous, mouse, on cardiomyocyte surfaces) (mouse); assay: tissue staining together with serum adiponectin ELISA in wild type and T-cadherin null mice
[3] = target: T1, T-cadherin (endogenous, mouse, on cardiomyocyte surfaces) (mouse); assay: immunofluorescence of heart sections; adiponectin surface staining fell to background in T-cadherin null hearts

Measured: binding

B1: adiponectin (endogenous, mouse) (ligand, UniProt Q60994 18-247, looked up)
chain: EDDVTTTEELAPALVPPPKGTCAGWMAGIPGHPGHNGTPGRDGRDGTPGEKGEKGDAGLLGPKGETGDVGMTGAEGPRGFPGTPGRKGEPGEAAYVYRSAFSVGLETRVTVPNVPIRFTKIFYNQQNHYDGSTGKFYCNIPGLYYFSYHITVYMKDVKVSLFKKDKAVLFTYDQYQEKNVDQASGSVLLHLEVGDQVWLQVYGDGDHNGLYADNVNDSTFTGFLLYHDTN
binds: all assays above
